Patent US20230040736A1, “DINITROXIDE BIRADICAL COMPOUNDS AS POLARIZING AGENTS” (COMMISSARIAT A L'ENERGIE ATOMIQUE ET AUX ENERGIES …, priority 2017, published 2023)

Test: MAS-DNP performance of biradical polarizing agents at 9.4 T (Table 1)

## CC1(C)C=C(C(=O)NC2CC(C)(C)N([O])C(C)(C)C2)C(C)(C)N1[O] [AsymPol]
  Buildup Time TB MAS: 0.6 s
  Buildup Time TB Static: 1.0 s
  DNP gain εB(MAS): 30
  DNP sensitivity εB · TB(MAS)−1/2: 39 s^ −1/2
  εon/off MAS: 32
  εon/off Static: 11
